What all share (experiment): affinity purification with mass spectrometry; GST-tagged bait (or GST control) bound to glutathione-Sepharose (200 μg) incubated with total trophozoite lysate (2 mg), 4 h, 4 °C; SDS-PAGE, silver stain, bands cut, nano UPLC-QToF; hits with reliability above 95%; only the target purified
Experiment [1] concerns the target GST-EhADH recombinant protein (E. histolytica).
The target of experiment [2] is T1, GST-Linker recombinant protein (E. histolytica).
T1 sequence: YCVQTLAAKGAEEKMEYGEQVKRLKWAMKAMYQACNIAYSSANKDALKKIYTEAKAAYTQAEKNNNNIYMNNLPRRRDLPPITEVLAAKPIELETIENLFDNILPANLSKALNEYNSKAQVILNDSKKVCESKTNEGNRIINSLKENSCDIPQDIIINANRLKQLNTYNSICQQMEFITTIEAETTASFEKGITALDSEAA

Experiment [3] addresses T2, GST-Adh recombinant protein (E. histolytica).
T2 sequence: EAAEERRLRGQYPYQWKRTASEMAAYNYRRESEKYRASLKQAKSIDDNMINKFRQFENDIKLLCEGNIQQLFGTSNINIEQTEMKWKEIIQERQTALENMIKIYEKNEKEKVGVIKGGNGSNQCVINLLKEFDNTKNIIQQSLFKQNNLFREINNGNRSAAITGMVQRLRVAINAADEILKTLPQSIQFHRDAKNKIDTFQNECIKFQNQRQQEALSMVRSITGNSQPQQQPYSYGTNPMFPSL

No constants are given. Whether binding was seen depends on the method and setting. Binding seen in cells or lysates may run through a third protein. Here binding means that the protein was enriched with, or labelled near, the bait; the list need not be complete. For some assays here: Sequences can lack the tags named with a protein.

B1: EhNPC1 (protein, UniProt C4M8X7 1-1339)
chain: MFVFFFLISVVISITPLPGGERDINNLDQYNNKCRMHNVPGCTAPAINMKSDGTLYLTDAYPAPKNMIEICISEHPEFDPNVTLGHKTCCDEHSVLDLKEQSTLLDGSFGKCPACYLNQMNLWCGFACDPNSARWTEIDDFKHDNTCNEPDGIDVPSLYYYLHPLYAQQIYDSCKDTELSGGFAVRSLYPTYKEFFQMISDVNPVMPLHFVYDETGYNGSKYTEMHKCSDMCSCQSCHEMCTEFIEDEPTFKDYPFLDGTLNIITIISIHLFMLFIMVTITVCGGILSYKTFTQMKKSNPTLLYISYISLGAVTLLGIGFIIMGIIVVGFPMEGVITSMPWGDGNLLGMILLYIGFGVYVIGYSVYDLYYFVIYTLYNKKESEDIIDSAKVSILGQEESCEEDPNKVDLTDNFLSKAMSWYTKFLWKFKWIILTVVILCCIVLCVGVFKIVFITDSLGLWVPKNCQTMKDKNYYDEAFGPFFRINQFMLSDKLHPGNQVLTQPLIVQLQQMIDEIRAIHVEWTDKETGITKDITMDDMCYKPVFGKGCIITSVTGYWQHDINKIMNTENVTQYIQNCLGNPLATGCADDIGSPVDPHNSLGNYTVGDNNDPMKATILQATFMFNQPNKTAIEWAELWEEKYLEILDRDYSLVKVAYQAQRSVDDEINRETFTDVLTVLCSYMVMFIYISLSLGNSFYHFNYKTVFVKSRILLGILGIVIVLFSVFTSAGFFSWINVEATLIITEVIPFLVLAIGVDNIFILTNTIDEQPMYDKDGQYVPVEKRLEHSLMHVGPSMMLASISESLAFFLGYLTSMPAVQSFSLYAGLAIFIDFILQITVYAVLLCYDVKRQESHGLDFIPWLQVHDNSLDEQHDFERGSLIKHLFKYVATFLSYYPVKIIGLFFFIAFFIFSLNYVPKTMLGLPQETALPQDSYIQDYFVALTYLEIGPPVYIVVRDGATYLNETTQSALCASDNFGCDALSIPNYYDAARTIDGTTFDWIDDYFSWAAQKDCCRLDKDGNICPYDMPNYTECTPCFTNFTDKKRPVPEDFYKYINRFLTASINETLCSVNGQAYYPDVVWNHINGTKETDYSYVNVSRLRLYHTVLVTQDDFIDAMVQAYNISDYMNSIFDVKTFPYAYHYVYFQQYFNIVDLCVMDVCLALAAVFIVVMLLMFDPIVAIMIVLCVLMCVIDLIGIMYLWGVELNAVSCVNLVMSIGITIEFCVHIAHAFLSSPKKTLNDKMKDAVMNMGNNVFVGITLTKFLGVIVLSLSSGLIFVIYYFRMYFMMLIFGASHGLFFLPILLSLIPSVSLSHITDPFKKMFGRCNKKKSTKGEYQNFE
For the molecule B1, the binding result in experiment [1] and in experiment [2] was “binds” in each case.

B2: RIO1 family protein (protein, UniProt C4M7J5 1-345)
chain: MSKEEFRVLTAIEMGMRNHELVPLELIIQISKLNQSLVVRSMKDLHKHKLVWHSTMPYNGYRLTYLGYDYLALRTLTQRGVITGVAQKIGVGKEADIYLATNEKGDDLVLKFHRLGRTSFRAVKKKRDYTKGRVTTNWLYLSRLSAQKEFAFMKALYAKGFPTPIPVDCNRHCVLMSRVKGTLLANVREIEEPIAVFHQGLDLAVKLAECGLIHCDLNEFNLILSDDDKLTMIDFPQMVSVHCSEAEEFFDRDVGCIKTFFWKRFGFGTEEVITLKDIEQTENLDEEVKASGFDFKNEKLLEKARKEFVEDDSVDEEMKDSIDEDVNGNEENSYSDEHEQNEELE
As for B2, in experiment [2], the binding entry is “binds”.

B3: AIG1 family protein (protein, UniProt B1N537 1-298)
chain: MSTEEVKETKLLLIGDIGDGKSSLGNFILKDNKFAVSSGCDAKTQETVGYNGEGNRRNVFVIDTPGLQDSCKMNERWLNAMADCINNKKGVQAIVIVLNYNNGVLSNDLKTMIEIICNIFPFYKFWEHVCVVWTNCYNYTPQKQLDIHKKSKKDYYYPQLKRVIEEFSGNKEEYDIEPPMYYVDSHPDEGCDNSRSEMEIEKLLTWARSFKKPINIKREQKREDSEYKKVVTQEKQRRVEADENNINRMSQVKPMRRDIKIQYNGKVSCSEWEVMESKSEPDIKIKQEKLIQFNCTIL
Take B3: in experiment [2], the binding result is on record as “binds”.

B4: EhHSP70 (EHI_127700) (protein, UniProt B1N4X0 1-598)
chain: MFVSQPARSTCIGIDLGTTNSCMCVFDKTTPRILENAEGKRTTPSCVSFTPTGILVGEAAKRMEALHPTTTVSGVKRMIGCQYKSVEQQRKPYKIVEGKNGEGWIYINGKTYSPSEISSFILKKLKKDAEAKLGKRVDEAVITCPAYFNDAQRQATKDAGTLAGLKVKRIINEPTAAALAYGIDTRKENEGKNIAVYDLGGGTFDISILNINKGIFQVKATNGDTMLGGEDFDKAICQYIEKEFERKYKRNLQRNKKGISRIKEAAEKVKCELSSNEESVISLPYLDRQDSLEITISRRKIELLCKGICKRTEYPCLQCMKDAKLRKKDISDVVLVGGMTRMPLIQNTVQEIFGKKPSKNVNPDEAVAIGAAIQASIIEGKKKDIILVDVTPLTLGIETYGGVMTPLINRNTTIPTSVSKEFTTSMDNQQEVDIKVFQGERRVTRKNKKLGEFKLVGIPPAKKGVAKIEVTFDIDVNGIVKVSALDKGTGKKTGIQVKSNGGLNEEEINRLVKEGEEHAAEDKRKEQLLLHRQRLKEMIESAEDIQKELLKKKIEIRELERVINQSKKVITSEDENEIKRLINQLGEETSNSSAKLYK
For B4, the binding result in experiment [2] is listed as “binds”.

B5: EhVps35 (protein, UniProt C4M4G0 1-746)
chain: MSKKVQQVDPVTESNQKQNNMAMYTDLMRRAMDHKNYNEALENAYKICEQMNTTNLIPAQYYNLYLVLQQCLSVLDMYLRTDYIADGNDILDLYEEVQTYQCAVARLYLMCIVGSAAVKSKKVGIVVFLKDIIEMSRAVQHPTKGIFLRNYILDCVKSILPSSTTEEPSEGNLINSIEFLLNNFSEMCRLLVRLTQGPQVTEQKVEEQQQLCQVVGKNLMIMSNLDGVSLELYSTNILPRFLEQVLLSRDKVTQDYLYDALIQAFPADYQLATLHLLLHSLGGVVANVGIRRILCSLMERISSYVSANPQIERNMDMFKIFSTHISQIVKTQTLTCEEYVSVYATLAHLVIVWHNEDDAYTQLNAINDNVYDYLTTQQNISIEAANALMSLLQFPFTKYNVLKVIQLRVYPELINLLPYTLRHETHRFVAKKVTEKNHISSTGDIMVLTIRCIETLYQDTKDMTPLNDEELAIDCNLFKTVALSSTVSTESFFDIVREVKNAVKNAGNRRSLMILPTVISMYLRAIPVITDKKDDMFKCVFDILKTLKTLSHFVALKCCVEVGSAAAQAKYSQASYFFETALTMYEDETDIPKEESLKLILSTLASCSLEDDMNEVYIIGCGKFIQLLQDSFQKGKLYCQVSSALFNEQRKVAKQSVSYLQKAVKEAGLCQVAEQNIELLIDILNIYIIHFIRDNSEITAEYINNFANVIKESISQTEIPKLQSYYKETADYIATRTEDKVKQLQL
Turning to B5, in experiment [2], the binding entry is listed as “binds”.

B6: Ribosomal protein 60S L26 (protein, UniProt C4LSU3 1-213)
chain: MKFNCKVSSNPSKARKALYTANASQRALMMSARLSKELREKYNVIAIPIHKDDEVKIIKGHQKVAGKVTAVRRSKYVINIDKLTKTKANGQTVPIAIRPSNVIITKLFLNKDREALLAKKAESRKSYKELVAKRNEEVAKAFTAVYPALNMDIFGKKVEPITEKKPIRIPSKKMAEKLMSKPTLRAYKTGIKVHKAKNAIAAYKAALAKKIAK
With B6, the binding result in experiment [2] is listed as “binds”.

B7: Proteosome alpha subunit (protein, UniProt Q94561 1-247)
chain: MFMTKNENDHGVNTFSSEGRLFQVEYATEAMKLGSTVIGIQTKEGVVLAVEKRISSPLMLGSSIEKIIEIDDHIGAAVSGLTADARTLIDNARLEAQNHRFMYDEPINVEVVAQAISDLSLRFGEGSRKKKVMSRPFGVALLIAGVDETGPRLFQTDPSGMFIEFYAKATGAGTEAAQSILHEKYNKSMTLREAEILALSTLKQVMEEKLNSKNVEVALVTVEKKKFEIMDTAFIENLIGEIKEELI
For B7, the binding entry in experiment [2] is reported as “binds”.

B8: BAR/SH3 domain protein (EHI_105240) (protein, UniProt C4M128 1-566)
chain: MSIRDALSKKIYQVKTTLNMSEKTIDVEYQRVYNKFKYQEVGLNRLYHLIANNLDLMIQVQHTRIDITDALVQLTDPIVEINSAALKYKTTCEIESMAVSKYKQTVQKVVISPLLELKKMYNILSARHAILKVRHNDCDRFQDQMNNSKGENHVQAKQKYERSLDLYNYLRSELVEDMKNIISTSMLFYNETMIGLIGSDIYEDEQITETRSSLFNLQNSMEKTELTQKTYTITPPDQSCVTEDIVFRKKQNDLHCGKYKLEVCFVKESSAVNITEPEDVNRYPTLKKELPPTKPNQLQQTSRTVPLPKSTPQQQQPKIDDKTSVSKTGSALNIKKDEPNQRRQTQKLQSLTEQKKEQSKPQISTKIEKQENNSIKKVEQQPNSKKRAVKNLKRIENRQTRMLSEIRNGKTQQKDVRHSVLIPKNPENMKKPTQLDPKVRARIEKMKKEQEKDDEFEVVTVDIDSVSNSKTQETPKKKFEIVECDEDTTEESSDVESIELELDEFEKEEETVKLYKAIYSYDATESLELSFKKGDIIKIYSTDDEWFEGEINGKRGFVPSNFLQPL
Regarding B8, the binding result in experiment [2] is “binds”.

B9: Acetyltransferase, GNAT family (enzyme, UniProt C4M6X5 1-163)
chain: MLNIGIHFIDEIRRVNCNVLPVMYSDIFYNKIKKEDSIVIKSLNLIFKDLVIERMLIKEVSENNKIVGGIIGMKEKDKYVLMTLAVYTKFQGKGYGSKLVEFFIQKVKEKGIRKIEVQVHIDNKHAIEFYTKFGFKRIKTIPKAYPRLSHPSGYLYELILNTM
Take B9: the binding entry in experiment [2] was “binds”.

B10: EhPeroxiredoxin (EhPrx) (enzyme, UniProt C4MAR7 1-229)
chain: MSCNQQKECCKKECQEKECCCPRIKAFKKFINTFEKAQIGKEAPEFKAPAYCPCGSIKEIDINEYRGKYVVLLFYPLDWTFVCPTEMIGYSELAGQLKEINCEVIGVSVDSVYCHQAWCEADKSKGGVGKLTFPLVSDIKRCISIKYGMLNVEAGIARRGYVIIDDKGKVRYIQMNDDGIGRSTEETIRIVKAIQFSDEHGAVCPLNWKPGKDTIEPTPDGIKKYLTAH
Consider B10, for which, in experiment [3], the binding entry was “binds”.

The values above are taken from paper PMC11277477.
